Results from patent US20030224522A1, “Methods for delivering nucleic acid molecules into cells and assessment thereof” (priority 2002, published 2003).
Some of these results come from one statement about several compounds together.

Tested on: LM(tk−) and Hff cells
Test: ACes transfection efficiency in synchronized versus asynchronous cell populations
Format: cell-based, murine; human
Details: with Superfect or LipofectAMINE PLUS

Structure (SMILES) | enhancement of transfection efficiencies above control transfections on asynchronous cell populations
Cc1cn([C@H]2C[C@H](O)[C@@H](CO)O2)c(=O)[nH]c1=O [thymidine] | 2.5-6 fold
COC(=O)Nc1nc2ccc(C(=O)c3cccs3)cc2[nH]1 [nocodazole] | 2.5-6 fold
